Laboratory results taken from US20230146455A1 (Yuyu Pharma, Inc., priority 2020, published 2023).
“And” between values parts separate entries of the source, which are not always exact repeats. Equal values may be shown once. Where a SMILES comes first, the peptide text is derived from it. [ ]: non-standard residue; d: D form. Hyp = O=C(O)[C@@H]1C[C@@H](O)CN1

How the values were obtained:
Type in all cases: cell-based, human
TNF-alpha = assay: Example 9 Luminex, LPS hPBMCs: TNF-alpha
Method: (§1) Treatment Human PBMCs were pretreated with YY-101, YDE-011 and YDE-043 or reference compound; Xiidra® at various concentration (ranging from 1 nM to 100 uM) for 2 h before stimulation. An equal volume of 0.5% DMSO was used as a vehicle control. Then, the cells were treated with LPS at 5 ug/ml. The supernatants from treated cells were harvested at 24 h and placed in a 96 well for Luminex cytokine & chemokine profiling using a Luminex 200 multiplex assay (Luminex; R&D system, USA).
(§2) The main study arm with triplicate wells per group in a 24-well plate: • 1. Blank • 2. PBMC: 0.5% DMSO • 3. PBMC+LPS (5 ug/ml) • 4. PBMC+YY-101 100 uM • 5. PBMC+YY-101 10 uM • 6. PBMC+YY-101 1 uM • 7. PBMC+YY-101 0.1 uM • 8. PBMC+YY-101 0.01 uM • 9. PBMC+LPS (5 ug/ml)+Xiidra®100 uM • 10. PBMC+LPS (5 ug/ml)+Xiidra® 10 uM • 11. PBMC+LPS (5 ug/ml)+Xiidra® 1 uM • 12. PBMC+LPS (5 ug/ml)+Xiidra®0.1 uM • 13. PBMC+LPS (5 ug/ml)+Xiidra®0.01 uM • 14. PBMC+LPS (5 ug/ml)+Xiidra®0.001 uM • 15. PBMC+LPS (5 ug/ml)+YY-101 100 uM • 16. PBMC+LPS (5 ug/ml)+YY-101 10 uM • 17. PBMC+LPS (5 ug/ml)+YY-101 1 uM • 18. PBMC+LPS (5 ug/ml)+YY-101 0.1 uM • 19. PBMC+LPS (5 ug/ml)+YY-101 0.01 uM • 20. PBMC+LPS (5 ug/ml)+YY-101 0.001 uM • 21. PBMC+LPS (5 ug/ml)+YDE-011 100 uM • 22. PBMC+LPS (5 ug/ml)+YDE-011 10 uM • 23. PBMC+LPS (5 ug/ml)+YDE-011 1 uM • 24. PBMC+LPS (5 ug/ml)+YDE-011 0.1 uM • 25. PBMC+LPS (5 ug/ml)+YDE-011 0.01 uM • 26. PBMC+LPS (5 ug/ml)+YDE-011 0.001 uM • 27. PBMC+LPS (5 ug/ml)+YDE-043 100 uM • 28. PBMC+LPS (5 ug/ml)+YDE-043 10 uM • 29. PBMC+LPS (5 ug/ml)+YDE-043 1 uM • 30. PBMC+LPS (5 ug/ml)+YDE-043 0.1 uM • 31. PBMC+LPS (5 ug/ml)+YDE-043 0.01 uM • 32. PBMC+LPS (5 ug/ml)+YDE-043 0.001 uM
(§3) Multiplex assay was used to measure 30 cytokines and chemokines. The 1:2, 1:10 and 1:200 diluted cell supernatant and serial dilution of the standard were dispensed into a 96 well plate at 50 ul/well. Then, the pre-mixed cocktail of antibody-coated magnetic beads was dispensed at 50 ul/well and incubated at room temperature for 2 h in a horizontal orbital microplate shaker at 800±500 rpm. The beads were washed using a magnetic device to prevent loss. The biotin-antibody was dispensed in 50 ul of each well and incubated at room temperature for 1 h in a shaker at 800±500 rpm. After washing, streptavidin-PE was added at 50 ul/well and incubated at room temperature for 30 min in a shaker under the same conditions. Finally, after washing, wash buffer (100 ul/well) was added to the plate and incubated in a shaker for 2 min. The Luminex™ 200 setting were set according to the manufacturer's protocol. The data was calculated with a standard five-parameter logistic nonlinear regression analysis of the data (xPonent software 4.2, USA). The levels of cytokine/chemokine are normalized to the live cell counts (1×10^5 cells/mL) and presented as concentrations per mL (pg/mL or ng/mL).

CCL3/MIP-1 alpha = assay: Example 9 Luminex, LPS hPBMCs: CCL3/MIP-1 alpha
Method: as §1, §2, §3

IFN-gamma = assay: Example 9 Luminex, LPS hPBMCs: IFN-gamma
Method: as §1, §2, §3

MMP-9 = assay: Example 9 Luminex, LPS hPBMCs: MMP-9
Method: as §1, §2, §3

[1] = PBMC + LPS(5 ug/ml) + test article 0.001 uM, Mean
[2] = PBMC + LPS(5 ug/ml) + test article 0.01 uM, Mean
[3] = PBMC + LPS(5 ug/ml) + test article 0.1 uM, Mean
[4] = PBMC + LPS(5 ug/ml) + test article 1 uM, Mean
[5] = PBMC + LPS(5 ug/ml) + test article 10 uM, Mean
[6] = PBMC + LPS(5 ug/ml) + test article 100 uM, Mean

With `CC(C)C[C@H](NC(=O)CNC(=O)[C@H](CC(C)C)NC(=O)[C@H](CCC(N)=O)NC(=O)CNC(=O)[C@@H]1C[C@@H](O)CN1)C(=O)N[C@@H](C)C(=O)NCC(=O)N1CCC[C@H]1C(=O)N[C@@H](CCCCN)C(=O)O` [YDE-011] (H-[Hyp]GQLGLAGPK-OH) the “MFI, Bead name: TNF-alpha” value (TNF-alpha; [1]) was 431.5, the “MFI, Bead name: TNF-alpha” value (TNF-alpha; PBMC + LPS(5 ug/ml) + test article 0.001 uM, individual replicates (1st, 2nd, 3rd)) was 427.5 and 426.0 and 441.0 and the “MFI, Bead name: TNF-alpha” value (TNF-alpha; [2]) was 443.7. The “MFI, Bead name: TNF-alpha” value (TNF-alpha; PBMC + LPS(5 ug/ml) + test article 0.01 uM, individual replicates (1st, 2nd, 3rd)) was 441.0 (2×) and 449.0, the “MFI, Bead name: TNF-alpha” value (TNF-alpha; [3]) was 435.7 and the “MFI, Bead name: TNF-alpha” value (TNF-alpha; PBMC + LPS(5 ug/ml) + test article 0.1 uM, individual replicates (1st, 2nd, 3rd)) was 437.0 and 438.0 and 432.0. For the same compound, the “MFI, Bead name: TNF-alpha” value (TNF-alpha; [4]) was 431.3, the “MFI, Bead name: TNF-alpha” value (TNF-alpha; PBMC + LPS(5 ug/ml) + test article 1 uM, individual replicates (1st, 2nd, 3rd)) was 440.0 and 415.0 and 439.0 and the “MFI, Bead name: TNF-alpha” value (TNF-alpha; [5]) was 456.0. The “MFI, Bead name: TNF-alpha” value (TNF-alpha; PBMC + LPS(5 ug/ml) + test article 10 uM, individual replicates (1st, 2nd, 3rd)) was 479.0 and 431.0 and 458.0, the “MFI, Bead name: TNF-alpha” value (TNF-alpha; [6]) was 334.2 and the “MFI, Bead name: TNF-alpha” value (TNF-alpha; PBMC + LPS(5 ug/ml) + test article 100 uM, individual replicates (1st, 2nd, 3rd)) was 340.0 and 331.5 and 331.0. For the same compound, the MFI (CCL3/MIP-1 alpha; [1]) was 132.7, the MFI (CCL3/MIP-1 alpha; PBMC + LPS(5 ug/ml) + test article 0.001 uM, individual replicates) was 134.5 and 126.5 and 137.0 and the MFI (CCL3/MIP-1 alpha; [2]) was 136.8. For the same compound, the MFI (CCL3/MIP-1 alpha; PBMC + LPS(5 ug/ml) + test article 0.01 uM, individual replicates) was 137.5 and 134.5 and 138.5, the MFI (CCL3/MIP-1 alpha; [3]) was 118.3 and the MFI (CCL3/MIP-1 alpha; PBMC + LPS(5 ug/ml) + test article 0.1 uM, individual replicates) was 113.5 and 127.0 and 114.5. The MFI (CCL3/MIP-1 alpha; [4]) was 135.0, the MFI (CCL3/MIP-1 alpha; PBMC + LPS(5 ug/ml) + test article 1 uM, individual replicates) was 129.5 and 138.0 and 137.5 and the MFI (CCL3/MIP-1 alpha; [5]) was 143.2. For the same compound, the MFI (CCL3/MIP-1 alpha; PBMC + LPS(5 ug/ml) + test article 10 uM, individual replicates) was 152.5 and 128.5 and 148.5, the MFI (CCL3/MIP-1 alpha; [6]) was 153.0 and the MFI (CCL3/MIP-1 alpha; PBMC + LPS(5 ug/ml) + test article 100 uM, individual replicates) was 164.5 and 157.0 and 137.5. The “MFI (Bead name: IFN-gamma)” value (IFN-gamma; [1]) was 185.3, the “MFI (Bead name: IFN-gamma)” value (IFN-gamma; PBMC + LPS(5 ug/ml) + test article 0.001 uM, single replicates) was 147.0 and 174.0 and 235.0 and the “MFI (Bead name: IFN-gamma)” value (IFN-gamma; [2]) was 190.0. The “MFI (Bead name: IFN-gamma)” value (IFN-gamma; PBMC + LPS(5 ug/ml) + test article 0.01 uM, single replicates) was 185.0 and 180.0 and 205.0, the “MFI (Bead name: IFN-gamma)” value (IFN-gamma; [3]) was 195.3 and the “MFI (Bead name: IFN-gamma)” value (IFN-gamma; PBMC + LPS(5 ug/ml) + test article 0.1 uM, single replicates) was 216.0 and 180.0 and 190.0. The “MFI (Bead name: IFN-gamma)” value (IFN-gamma; [4]) was 241.2, the “MFI (Bead name: IFN-gamma)” value (IFN-gamma; PBMC + LPS(5 ug/ml) + test article 1 uM, single replicates) was 268.0 and 220.5 and 235.0 and the “MFI (Bead name: IFN-gamma)” value (IFN-gamma; [5]) was 203.0. For the same compound, the “MFI (Bead name: IFN-gamma)” value (IFN-gamma; PBMC + LPS(5 ug/ml) + test article 10 uM, single replicates) was 237.5 and 208.0 and 163.5, the “MFI (Bead name: IFN-gamma)” value (IFN-gamma; [6]) was 124.3 and the “MFI (Bead name: IFN-gamma)” value (IFN-gamma; PBMC + LPS(5 ug/ml) + test article 100 uM, single replicates) was 142.0 and 114.0 and 117.0. For the same compound, the “MMP-9 MFI” value (MMP-9; PBMC + LPS(5 ug/ml) + 0.001 uM, Mean) was 44.8, the “MMP-9 MFI” value (MMP-9; PBMC + LPS(5 ug/ml) + 0.001 uM, single replicates) was 48.5 and 41.5 and 44.5 and the “MMP-9 MFI” value (MMP-9; PBMC + LPS(5 ug/ml) + 0.01 uM, Mean) was 40.5. For the same compound, the “MMP-9 MFI” value (MMP-9; PBMC + LPS(5 ug/ml) + 0.01 uM, single replicates) was 39.5 (2×) and 42.5, the “MMP-9 MFI” value (MMP-9; PBMC + LPS(5 ug/ml) + 0.1 uM, Mean) was 40.5 and the “MMP-9 MFI” value (MMP-9; PBMC + LPS(5 ug/ml) + 0.1 uM, single replicates) was 42.5 and 39.5 (2×). For the same compound, the “MMP-9 MFI” value (MMP-9; PBMC + LPS(5 ug/ml) + 1 uM, Mean) was 41.8, the “MMP-9 MFI” value (MMP-9; PBMC + LPS(5 ug/ml) + 1 uM, single replicates) was 42.5 (2×) and 40.5 and the “MMP-9 MFI” value (MMP-9; PBMC + LPS(5 ug/ml) + 10 uM, Mean) was 42.2. The “MMP-9 MFI” value (MMP-9; PBMC + LPS(5 ug/ml) + 10 uM, single replicates) was 41.5 (2×) and 43.5, the “MMP-9 MFI” value (MMP-9; PBMC + LPS(5 ug/ml) + 100 uM, Mean) was 38.5 and the “MMP-9 MFI” value (MMP-9; PBMC + LPS(5 ug/ml) + 100 uM, single replicates) was 38.5 and 39.5 and 37.5.
